PubChem BioAssay AID1053208 – Peter MacCallum Cancer Centre – 2014
In all, the deposit lists about 17,000 reagents; below is a random part of them. Of all reagents, 788 (4.7%) got an active call. 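Calls rest on z-score classes alone; an extra cut-off of viability at most 70% of control was not applied to them.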 A number with no mark means an inactive call.

Assay: 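Genes whose silencing cuts survival of bone tumour cells only with doxorubicin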 (primary screen)
Cells: mouse osteosarcoma cells, early-passage culture from an engineered mouse model of fibroblastic bone tumour
Reagent: siRNA pool against mouse genes, 40 nM
Time to read-out: about 120 h (48 h before drug, then 72 h with drug)
Challenge: doxorubicin 100 nM for 72 h, roughly 30-40% inhibitory dose
Detection: 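Viability read as ATP luminescence after 72 h of 100 nM doxorubicin or none, duplicate wells averaged, scaled to non-targeting siRNA, then expressed as robust z-scores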
Direction: viability z-score with doxorubicin and doxorubicin viability vs non-targeting: higher = more viable cells under doxorubicin; viability z-score without drug: higher = more viable cells with knock-down alone; z-score of drug to no-drug ratio: higher = less drug sensitisation by knock-down
Active means: 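a pool counts as active when its viability z-score with doxorubicin is -2 or below and its z-score without drug lies between -2 and 2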

target gene | combined z-score class | viability z-score with doxorubicin | viability z-score without drug | z-score of drug to no-drug ratio | doxorubicin viability vs non-targeting
Zc3h3 | no change with or without drug | 0 | 0.84 | -0.45 | 0.94
F11 | no change with or without drug | -0.9 | -0.51 | -0.56 | 0.86
Asb13 | no change with or without drug | 0 | -0.17 | 0.22 | 0.94
Or51f2 | no change with or without drug | -0.9 | -1.85 | 0.45 | 0.86
Gja8 | no change with or without drug | -0.9 | -0.51 | -0.56 | 0.86
Or8g26 | low cell count with doxorubicin only (active) | -2.14 | -1.01 | -1.57 | 0.75
Or5al5 | no change with or without drug | -0.67 | -1.18 | 0.22 | 0.88
Dipk1c | no change with or without drug | 0 | 0.17 | 0 | 0.94
Sycp2 | no change with or without drug | -1.57 | 1.18 | -2.25 | 0.8
Cep83 | high without drug; low with doxorubicin | -2.59 | 2.36 | -3.71 | 0.71
Syt13 | no change with or without drug | 1.46 | -1.69 | 3.15 | 1.07
Gdf15 | no change with or without drug | 0.79 | 0.51 | 0.56 | 1.01
Eif3h | no change with or without drug | -0.45 | -0.51 | 0 | 0.9
Runx2 | high cell count without drug only | 0.67 | 2.36 | -0.67 | 1
Pomgnt1 | no change with or without drug | -1.57 | 1.18 | -2.25 | 0.8
Psg16 | no change with or without drug | 0.67 | 0.51 | 0.45 | 1

Active calls, of those listed so far:
target gene | combined z-score class | viability z-score with doxorubicin | viability z-score without drug | z-score of drug to no-drug ratio | doxorubicin viability vs non-targeting
Or8g26 | low cell count with doxorubicin only (active) | -2.14 | -1.01 | -1.57 | 0.75

Further records:
target gene | combined z-score class | viability z-score with doxorubicin | viability z-score without drug | z-score of drug to no-drug ratio | doxorubicin viability vs non-targeting
Opa1 | no change with or without drug | 0.56 | -0.17 | 0.79 | 0.99
Morc2b | no change with or without drug | -0.9 | -0.84 | -0.22 | 0.86
Arx | high cell count with doxorubicin only | 3.6 | 1.18 | 2.92 | 1.26
Rinl | no change with or without drug | -0.22 | -1.01 | 0.56 | 0.92
Bcl2l10 | no change with or without drug | -0.79 | -0.51 | -0.34 | 0.87
Harbi1 | no change with or without drug | 0.9 | 0.51 | 0.67 | 1.02
Cfb | no change with or without drug | 1.46 | 1.85 | 0.34 | 1.07
Rep15 | no change with or without drug | -0.9 | 0.51 | -1.12 | 0.86
Vmn1r81 | high cell count with and without drug | 3.04 | 2.53 | 1.35 | 1.21
Dcaf10 | no change with or without drug | 0.67 | 0.51 | 0.45 | 1
Adcyap1r1 | no change with or without drug | 0.56 | -0.67 | 1.24 | 0.99
Gfpt2 | high cell count without drug only | 1.8 | 2.19 | 0.45 | 1.1
Bend6 | no change with or without drug | 0.45 | 1.01 | -0.11 | 0.98
Tgds | no change with or without drug | 1.91 | 0.51 | 1.69 | 1.11
Folh1 | no change with or without drug | -0.79 | 1.18 | -1.46 | 0.87
Timm13 | no change with or without drug | -0.22 | 0.17 | -0.22 | 0.92
Tyrobp | low cell count with doxorubicin only (active) | -2.02 | -0.84 | -1.57 | 0.76
Uba1y | no change with or without drug | 0.45 | 0.51 | 0.22 | 0.98
